In this experiment the target is T1, interleukin-4 receptor alpha (IL-4Rα) (mouse (endogenous in brain synaptosomes)) (UniProt P16382).
T1 sequence: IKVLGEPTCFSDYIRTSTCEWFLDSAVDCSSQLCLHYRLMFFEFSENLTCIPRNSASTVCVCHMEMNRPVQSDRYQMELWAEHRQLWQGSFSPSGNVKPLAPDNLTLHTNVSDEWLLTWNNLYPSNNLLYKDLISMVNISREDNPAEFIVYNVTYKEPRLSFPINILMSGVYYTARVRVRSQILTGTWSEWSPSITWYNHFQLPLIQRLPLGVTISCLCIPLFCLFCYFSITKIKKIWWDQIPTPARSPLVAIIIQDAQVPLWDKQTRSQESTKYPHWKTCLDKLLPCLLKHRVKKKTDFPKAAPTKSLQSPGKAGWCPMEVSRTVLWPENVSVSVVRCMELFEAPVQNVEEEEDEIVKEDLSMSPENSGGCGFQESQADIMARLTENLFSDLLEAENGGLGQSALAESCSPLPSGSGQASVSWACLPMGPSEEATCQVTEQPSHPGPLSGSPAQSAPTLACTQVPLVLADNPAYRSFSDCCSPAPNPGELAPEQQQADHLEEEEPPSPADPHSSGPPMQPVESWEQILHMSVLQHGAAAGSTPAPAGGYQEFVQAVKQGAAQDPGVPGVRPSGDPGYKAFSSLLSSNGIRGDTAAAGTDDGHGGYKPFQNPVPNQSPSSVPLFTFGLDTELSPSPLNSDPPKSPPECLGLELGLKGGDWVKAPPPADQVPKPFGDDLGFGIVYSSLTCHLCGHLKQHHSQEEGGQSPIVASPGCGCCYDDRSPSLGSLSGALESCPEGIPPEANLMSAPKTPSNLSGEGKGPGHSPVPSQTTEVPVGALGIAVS
Nature of the experiment: co-IP; synaptosome lysates (mouse brain) incubated with anti-IL-4Rα (BD Bioscience) or isotype IgG control on protein-A/G agarose beads overnight at 4°C in IP buffer (20 mM Tris-HCl pH 7.5, 150 mM NaCl, 5 mM EDTA, 1 µg/ml pepstatin); Western blot for GAP-43.

The chains behind the UniProt entries cited, without tags or fusion partners.
UniProt P06837: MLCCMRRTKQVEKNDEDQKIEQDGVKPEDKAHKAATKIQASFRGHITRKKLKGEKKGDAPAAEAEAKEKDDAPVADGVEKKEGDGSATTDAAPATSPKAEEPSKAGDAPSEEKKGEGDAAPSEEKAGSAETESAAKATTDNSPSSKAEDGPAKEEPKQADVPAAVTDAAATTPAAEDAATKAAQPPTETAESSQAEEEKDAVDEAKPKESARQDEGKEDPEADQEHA

No constants are given. Whether binding was seen depends on the method and setting. Binding seen in cells or lysates may run through a third protein. Some entries that bind do so weakly or less than the wild type.

Regarding “Growth-associated protein-43 (GAP-43) (from UniProt P06837 1-227)”, the binding result is listed as “binds”.

Values taken from paper PMC9123307.
